Source: the supplement of paper PMC10849652
Some of the results follow.

Protein sequences, listed by entry. Tags and fused reporters are not part of them. Lines headed by an entry give the natural chain unless they say otherwise; changes in a name come on top.
UniProt Q92574: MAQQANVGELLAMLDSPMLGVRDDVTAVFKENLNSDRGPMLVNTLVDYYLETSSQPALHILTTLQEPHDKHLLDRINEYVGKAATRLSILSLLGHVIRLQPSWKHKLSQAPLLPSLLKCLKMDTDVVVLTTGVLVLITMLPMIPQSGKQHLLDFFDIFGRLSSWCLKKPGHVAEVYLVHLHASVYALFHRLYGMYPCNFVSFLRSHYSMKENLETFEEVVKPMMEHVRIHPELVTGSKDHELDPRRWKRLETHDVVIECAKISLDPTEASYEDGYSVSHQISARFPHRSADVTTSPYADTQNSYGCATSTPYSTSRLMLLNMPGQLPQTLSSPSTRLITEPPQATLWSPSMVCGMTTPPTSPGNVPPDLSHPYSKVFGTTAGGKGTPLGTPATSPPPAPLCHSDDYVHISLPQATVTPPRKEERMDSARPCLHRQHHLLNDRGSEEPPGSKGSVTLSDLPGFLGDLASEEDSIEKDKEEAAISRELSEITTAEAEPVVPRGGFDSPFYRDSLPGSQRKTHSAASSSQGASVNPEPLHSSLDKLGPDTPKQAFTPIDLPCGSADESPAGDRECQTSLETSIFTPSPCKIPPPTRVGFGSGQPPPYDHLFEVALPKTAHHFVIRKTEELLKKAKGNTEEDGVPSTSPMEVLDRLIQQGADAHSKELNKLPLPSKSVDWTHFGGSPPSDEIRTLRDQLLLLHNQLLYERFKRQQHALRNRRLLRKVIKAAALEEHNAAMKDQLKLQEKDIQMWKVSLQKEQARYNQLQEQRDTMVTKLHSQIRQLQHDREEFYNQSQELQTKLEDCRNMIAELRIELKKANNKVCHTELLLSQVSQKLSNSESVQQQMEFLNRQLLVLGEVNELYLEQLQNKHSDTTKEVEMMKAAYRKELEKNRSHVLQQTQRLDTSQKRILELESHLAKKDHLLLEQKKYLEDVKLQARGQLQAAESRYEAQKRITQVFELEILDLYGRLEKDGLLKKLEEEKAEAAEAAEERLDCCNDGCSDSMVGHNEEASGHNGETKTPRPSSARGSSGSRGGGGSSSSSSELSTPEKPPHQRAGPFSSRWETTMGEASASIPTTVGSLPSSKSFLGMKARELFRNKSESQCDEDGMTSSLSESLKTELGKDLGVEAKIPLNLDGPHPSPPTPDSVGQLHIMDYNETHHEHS
UniProt Q07912: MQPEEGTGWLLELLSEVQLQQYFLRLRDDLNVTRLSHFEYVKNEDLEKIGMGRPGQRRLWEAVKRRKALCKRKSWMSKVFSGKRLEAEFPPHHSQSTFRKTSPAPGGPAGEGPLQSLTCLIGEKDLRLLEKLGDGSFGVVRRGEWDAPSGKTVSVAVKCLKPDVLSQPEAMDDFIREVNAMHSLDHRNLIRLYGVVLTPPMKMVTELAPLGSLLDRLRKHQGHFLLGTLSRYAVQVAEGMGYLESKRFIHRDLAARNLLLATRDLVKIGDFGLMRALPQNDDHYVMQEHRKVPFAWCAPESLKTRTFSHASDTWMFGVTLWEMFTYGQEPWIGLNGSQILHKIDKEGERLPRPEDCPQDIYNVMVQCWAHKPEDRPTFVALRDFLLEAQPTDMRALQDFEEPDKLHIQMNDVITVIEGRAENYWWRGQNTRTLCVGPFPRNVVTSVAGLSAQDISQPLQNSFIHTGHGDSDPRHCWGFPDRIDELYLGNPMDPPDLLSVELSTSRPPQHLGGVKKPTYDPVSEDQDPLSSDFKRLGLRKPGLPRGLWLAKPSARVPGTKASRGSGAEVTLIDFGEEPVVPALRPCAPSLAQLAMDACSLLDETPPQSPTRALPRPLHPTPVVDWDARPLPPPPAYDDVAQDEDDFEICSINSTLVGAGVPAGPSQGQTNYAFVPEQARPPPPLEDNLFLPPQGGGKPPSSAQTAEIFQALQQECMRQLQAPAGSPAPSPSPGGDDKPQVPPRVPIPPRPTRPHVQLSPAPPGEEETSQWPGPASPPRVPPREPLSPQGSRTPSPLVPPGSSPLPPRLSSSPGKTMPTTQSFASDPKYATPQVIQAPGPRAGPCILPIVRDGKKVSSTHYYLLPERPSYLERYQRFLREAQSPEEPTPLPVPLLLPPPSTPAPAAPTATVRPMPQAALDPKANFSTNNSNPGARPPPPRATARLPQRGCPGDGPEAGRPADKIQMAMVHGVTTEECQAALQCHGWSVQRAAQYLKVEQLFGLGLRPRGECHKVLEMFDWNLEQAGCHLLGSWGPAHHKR
UniProt Q86W33: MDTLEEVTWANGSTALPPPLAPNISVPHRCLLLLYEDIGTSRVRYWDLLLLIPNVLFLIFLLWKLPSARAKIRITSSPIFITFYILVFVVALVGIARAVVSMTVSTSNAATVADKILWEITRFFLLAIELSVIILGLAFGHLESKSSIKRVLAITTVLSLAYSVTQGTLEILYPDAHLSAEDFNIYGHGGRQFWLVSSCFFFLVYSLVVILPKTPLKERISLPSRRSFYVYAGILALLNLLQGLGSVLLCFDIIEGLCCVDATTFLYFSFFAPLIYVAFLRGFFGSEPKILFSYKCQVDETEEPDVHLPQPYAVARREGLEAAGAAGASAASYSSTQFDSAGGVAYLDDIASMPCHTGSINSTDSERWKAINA
UniProt O60784, whole entry, looked up: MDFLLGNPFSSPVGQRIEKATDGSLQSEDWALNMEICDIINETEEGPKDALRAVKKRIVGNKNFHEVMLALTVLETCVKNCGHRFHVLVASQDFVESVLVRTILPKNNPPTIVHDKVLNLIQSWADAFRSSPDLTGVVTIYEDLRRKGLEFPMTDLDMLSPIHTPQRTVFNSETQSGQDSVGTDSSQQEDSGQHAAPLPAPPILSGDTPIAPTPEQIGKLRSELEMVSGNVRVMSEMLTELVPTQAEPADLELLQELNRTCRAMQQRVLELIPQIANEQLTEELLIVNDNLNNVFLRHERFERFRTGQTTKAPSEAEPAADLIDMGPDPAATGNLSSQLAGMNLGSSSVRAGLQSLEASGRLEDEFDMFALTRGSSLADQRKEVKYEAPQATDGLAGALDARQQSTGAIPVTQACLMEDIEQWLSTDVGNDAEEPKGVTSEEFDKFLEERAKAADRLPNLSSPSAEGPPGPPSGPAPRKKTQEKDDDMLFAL
UniProt Q8WV44: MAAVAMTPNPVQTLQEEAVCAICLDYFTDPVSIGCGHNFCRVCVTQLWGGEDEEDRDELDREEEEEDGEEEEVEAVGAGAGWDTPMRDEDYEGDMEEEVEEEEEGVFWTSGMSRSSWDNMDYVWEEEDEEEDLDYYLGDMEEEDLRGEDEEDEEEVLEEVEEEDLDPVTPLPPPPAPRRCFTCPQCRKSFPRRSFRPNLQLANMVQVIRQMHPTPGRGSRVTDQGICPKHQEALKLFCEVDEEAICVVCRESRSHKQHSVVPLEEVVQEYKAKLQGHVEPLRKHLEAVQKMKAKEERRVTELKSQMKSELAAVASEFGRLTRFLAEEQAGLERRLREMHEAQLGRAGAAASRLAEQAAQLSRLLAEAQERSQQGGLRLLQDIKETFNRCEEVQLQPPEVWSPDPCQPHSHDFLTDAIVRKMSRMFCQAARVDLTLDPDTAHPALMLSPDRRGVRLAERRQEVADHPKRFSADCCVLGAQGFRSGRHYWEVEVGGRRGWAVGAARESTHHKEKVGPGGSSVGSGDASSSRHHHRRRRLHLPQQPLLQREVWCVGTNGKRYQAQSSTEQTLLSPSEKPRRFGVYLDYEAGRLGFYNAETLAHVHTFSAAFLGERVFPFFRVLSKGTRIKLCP
UniProt Q12815: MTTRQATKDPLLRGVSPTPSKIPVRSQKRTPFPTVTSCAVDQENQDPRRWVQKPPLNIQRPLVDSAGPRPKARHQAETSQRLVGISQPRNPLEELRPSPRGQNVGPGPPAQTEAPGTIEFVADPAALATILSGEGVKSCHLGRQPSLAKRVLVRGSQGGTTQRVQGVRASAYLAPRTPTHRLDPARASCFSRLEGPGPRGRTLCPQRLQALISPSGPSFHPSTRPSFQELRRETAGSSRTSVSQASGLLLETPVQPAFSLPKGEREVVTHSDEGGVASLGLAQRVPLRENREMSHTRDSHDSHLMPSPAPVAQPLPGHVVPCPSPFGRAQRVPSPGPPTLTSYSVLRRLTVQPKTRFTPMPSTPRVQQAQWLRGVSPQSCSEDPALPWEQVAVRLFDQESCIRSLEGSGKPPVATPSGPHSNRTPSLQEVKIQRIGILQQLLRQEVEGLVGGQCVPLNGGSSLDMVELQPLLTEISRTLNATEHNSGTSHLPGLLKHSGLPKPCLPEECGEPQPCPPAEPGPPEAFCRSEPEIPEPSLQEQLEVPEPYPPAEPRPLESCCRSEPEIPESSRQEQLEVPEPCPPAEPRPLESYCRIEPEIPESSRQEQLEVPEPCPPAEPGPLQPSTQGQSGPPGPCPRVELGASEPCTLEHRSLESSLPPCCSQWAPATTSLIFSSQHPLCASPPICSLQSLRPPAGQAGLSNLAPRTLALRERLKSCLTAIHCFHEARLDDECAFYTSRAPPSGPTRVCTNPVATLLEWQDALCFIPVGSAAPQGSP
UniProt Q8NDV7: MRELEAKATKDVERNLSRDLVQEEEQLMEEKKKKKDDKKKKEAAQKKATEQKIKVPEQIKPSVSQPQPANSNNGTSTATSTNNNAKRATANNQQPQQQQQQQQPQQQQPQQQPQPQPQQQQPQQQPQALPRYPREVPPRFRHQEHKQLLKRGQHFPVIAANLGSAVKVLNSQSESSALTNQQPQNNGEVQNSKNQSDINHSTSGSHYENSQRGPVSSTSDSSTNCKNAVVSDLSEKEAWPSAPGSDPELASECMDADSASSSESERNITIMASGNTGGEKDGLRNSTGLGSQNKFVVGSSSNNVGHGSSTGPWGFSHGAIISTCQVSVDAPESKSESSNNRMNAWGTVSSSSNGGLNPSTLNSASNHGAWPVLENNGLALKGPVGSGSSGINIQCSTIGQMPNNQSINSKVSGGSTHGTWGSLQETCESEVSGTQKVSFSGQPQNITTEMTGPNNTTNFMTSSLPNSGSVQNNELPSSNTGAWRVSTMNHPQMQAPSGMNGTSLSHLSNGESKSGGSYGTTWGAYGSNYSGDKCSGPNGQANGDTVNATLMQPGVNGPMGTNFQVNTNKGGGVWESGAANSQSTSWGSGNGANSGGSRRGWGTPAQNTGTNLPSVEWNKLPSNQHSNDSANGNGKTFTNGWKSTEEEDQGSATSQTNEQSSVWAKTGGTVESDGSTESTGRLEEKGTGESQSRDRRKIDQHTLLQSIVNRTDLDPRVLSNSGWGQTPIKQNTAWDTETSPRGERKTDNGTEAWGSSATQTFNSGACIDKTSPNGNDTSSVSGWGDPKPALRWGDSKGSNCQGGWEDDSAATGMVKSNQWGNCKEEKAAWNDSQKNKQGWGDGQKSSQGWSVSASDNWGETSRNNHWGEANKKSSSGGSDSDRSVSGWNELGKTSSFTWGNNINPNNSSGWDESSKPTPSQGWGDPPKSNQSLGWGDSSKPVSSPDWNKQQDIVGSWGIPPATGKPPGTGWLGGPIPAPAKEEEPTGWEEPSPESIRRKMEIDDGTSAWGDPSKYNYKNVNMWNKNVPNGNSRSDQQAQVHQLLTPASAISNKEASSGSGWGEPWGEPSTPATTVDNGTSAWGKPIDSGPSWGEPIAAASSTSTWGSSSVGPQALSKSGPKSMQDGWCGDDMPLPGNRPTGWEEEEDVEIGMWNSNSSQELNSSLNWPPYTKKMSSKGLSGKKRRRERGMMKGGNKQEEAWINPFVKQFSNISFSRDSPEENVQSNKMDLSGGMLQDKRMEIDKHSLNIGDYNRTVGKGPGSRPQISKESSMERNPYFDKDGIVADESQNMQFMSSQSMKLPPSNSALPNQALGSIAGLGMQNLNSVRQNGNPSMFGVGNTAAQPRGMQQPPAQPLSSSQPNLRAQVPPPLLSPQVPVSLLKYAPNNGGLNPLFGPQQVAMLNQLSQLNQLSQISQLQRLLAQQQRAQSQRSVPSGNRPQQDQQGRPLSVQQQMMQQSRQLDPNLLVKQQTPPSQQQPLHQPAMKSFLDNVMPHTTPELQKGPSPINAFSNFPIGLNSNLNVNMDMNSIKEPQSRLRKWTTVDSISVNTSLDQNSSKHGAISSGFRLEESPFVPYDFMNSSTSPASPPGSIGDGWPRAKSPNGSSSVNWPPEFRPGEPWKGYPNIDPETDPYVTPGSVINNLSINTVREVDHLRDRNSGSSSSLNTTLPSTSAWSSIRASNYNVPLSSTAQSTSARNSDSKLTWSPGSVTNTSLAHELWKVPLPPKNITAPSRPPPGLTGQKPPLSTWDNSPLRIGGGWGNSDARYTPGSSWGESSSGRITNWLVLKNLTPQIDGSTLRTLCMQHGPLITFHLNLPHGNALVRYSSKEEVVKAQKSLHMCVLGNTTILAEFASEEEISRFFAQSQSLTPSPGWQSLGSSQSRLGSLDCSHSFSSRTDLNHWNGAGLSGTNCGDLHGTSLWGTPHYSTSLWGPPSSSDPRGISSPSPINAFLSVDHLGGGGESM

How the values were obtained:
Assay in all cases: log2 fold change, soluble protein after heating vs DMSO (PISA); higher = thermal stabilisation; K562 cells, 10 uM, 30 min; active = over 0.2 and 3.5 SD of the protein, either way, in both replicates (recomputed)
[1] = compound: CC1=C(C=C(C=C1)NC(=O)C2=CC(=CC=C2)N(C)C)NC(=O)C3=CC=C(C=C3)O
How it was run: (§1)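 Soluble protein was defined as the supernatant after 21,000xg for 90 min. It came from K562 cells at 2×10^6 cells/mL given 10 μM compound for 30 min, heated in aliquots for 3 min across 48°C-58°C, pooled, and extracted in PBS with 0.5% NP-40 at 4°C, and was quantified by TMTpro 16plex LC-MS/MS with equalised channel sums. Thermal stability against control samples, from duplicates, is reported as log2 fold change.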

[2] = compound: CC1=CC=C(C=C1)SC2=C3C=C(SC3=CN=C2)C(=O)N
How it was run: as §1

[3] = compound: CC1=NC(=CC=C1)C2=C(N=C(N2)C(C)(C)C)C3=CC4=NC=CN=C4C=C3
How it was run: as §1

vemurafenib = compound: CCCS(=O)(=O)Nc1ccc(F)c(C(=O)c2c[nH]c3ncc(-c4ccc(Cl)cc4)cc23)c1F [vemurafenib]
How it was run: as §1

[4] = compound: CCCS(=O)(=O)Nc1ccc(F)c(C(=O)c2c[nH]c3ncc(Cl)cc23)c1F
How it was run: as §1

givinostat = compound: CCN(CC)Cc1ccc2cc(COC(=O)Nc3ccc(C(=O)NO)cc3)ccc2c1 [givinostat]
How it was run: as §1

Nexturastat A = compound: CCCCN(Cc1ccc(C(=O)NO)cc1)C(=O)Nc1ccccc1 [Nexturastat A]
How it was run: as §1

[5] = compound: CCCc1cc(C)[nH]c(=O)c1CNC(=O)c1cc(-c2ccnc(N3CCN(C)CC3)c2)cc2c1cnn2C(C)C
How it was run: as §1

barasertib = compound: CCN(CCCOc1ccc2c(Nc3cc(CC(=O)Nc4cccc(F)c4)[nH]n3)ncnc2c1)CCOP(=O)(O)O [barasertib]
How it was run: as §1

[6] = compound: CC1=C(C=C(C=C1)NC(=O)C2=CC(=CC=C2)C(C)(C)C#N)NC3=CC4=C(C=C3)N=CN(C4=O)C
How it was run: as §1

Measured: log2 fold change

TSC1 (UniProt Q92574)
inactive: [1] 0.102 | [2] -0.47 | [3] -0.044 | vemurafenib 0.045 | [4] 0.138 | givinostat 0.117

TPD52L2 isoform 3 (UniProt O43399)
inactive: Nexturastat A -0.021 | vemurafenib -0.028 | [5] -0.283

TNK2 isoform 3 (UniProt Q07912)
inactive: givinostat -0.017 | barasertib 0.122

TPRA1 (UniProt Q86W33)
inactive: [6] 0.158 | Nexturastat A -0.13 | vemurafenib 0.003 | [5] -0.257 | givinostat 0.287

TOM1 (UniProt O60784)
inactive: [6] 0.058 | [3] -0.022 | [5] -0.015 | givinostat -0.09 | barasertib -0.039
active: Nexturastat A 0.504

TRIM41 (UniProt Q8WV44)
inactive: vemurafenib -0.183

TRAPPC2 isoform 3 (UniProt P0DI81)
inactive: [1] -0.027 | [2] -0.116 | vemurafenib 0.008 | [4] -0.031 | [5] 0.047 | givinostat 0.018 | barasertib 0.085

TROAP (UniProt Q12815)
inactive: [1] -0.119 | Nexturastat A 0.117 | barasertib 0.014

TNRC6A (UniProt Q8NDV7)
inactive: [5] -0.013

TRPM4 (UniProt Q8TD43)
inactive: [6] -0.158 | Nexturastat A 0.285

TREML2 (UniProt Q5T2D2)
inactive: [6] 0.048 | [3] 0.126 | [5] 0.005 | givinostat 0.17 | barasertib 0.078
